Measurements from patent US6380198B1 (Laboratoire Medidom S.A., priority 1997, dated 2002).

Protein sequences, listed by entry. Tags and fused reporters are not part of them. Residues count along the entry.
UniProt G1SD54, 1-223: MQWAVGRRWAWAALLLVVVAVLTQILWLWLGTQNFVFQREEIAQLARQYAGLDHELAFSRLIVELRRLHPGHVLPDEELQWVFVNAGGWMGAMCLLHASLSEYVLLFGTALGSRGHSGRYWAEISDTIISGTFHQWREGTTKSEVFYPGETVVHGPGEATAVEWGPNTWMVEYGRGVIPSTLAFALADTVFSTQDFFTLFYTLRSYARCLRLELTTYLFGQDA

Molecular target: T1, σ-1 receptors (Oryctolagus cuniculus, UniProt G1SD54)
T1 construct: cell membranes obtained from the irido-ciliary body complex; from tissue; host or cells: rabbit irido-ciliary body, P2 membrane fraction
Assay: Inhibition of 3H(+)-N-allyl-nor-methazocine binding to irido-ciliary body membranes
Design: species or system rabbit (New Zealand albino)
Conditions: rabbit irido-ciliary body P2 membranes, 300 μg protein, 37° C., 150 minutes, duplicate
Experimental: The receptor binding technique was carried out on cell membranes obtained from the irido-ciliary body complex explanted, after sacrifice, from male albino rabbits of the New Zealand strain (Charles River Italiana, of Calco (CO)). The tissue was homogenised in buffer and the P2, fraction, rich in cell membrane proteins, was isolated. […] The La total protein concentration was determined with the Lowry method.
The non specific binding was evaluated in presence of haloperidol.
All tests were carried out in duplicate. The reaction was maintained at 37° C. for 150 minutes, followed by filtration on WhatmannGF/B filters. The radioactivity left on the filters was measured by liquid scintillation spectrometry.

IC50: 23.9 nM
Compound: Fc1ccc(C(c2ccc(F)cc2)N2CCN(C/C=C/c3ccccc3)CC2)cc1 [flunarizine]
